The values that follow come from PMC5017783.

The chains behind the UniProt entries cited, without tags or fusion partners.
UniProt Q9JI15: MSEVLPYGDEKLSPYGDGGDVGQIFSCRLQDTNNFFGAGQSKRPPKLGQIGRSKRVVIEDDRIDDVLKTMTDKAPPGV
UniProt P11275: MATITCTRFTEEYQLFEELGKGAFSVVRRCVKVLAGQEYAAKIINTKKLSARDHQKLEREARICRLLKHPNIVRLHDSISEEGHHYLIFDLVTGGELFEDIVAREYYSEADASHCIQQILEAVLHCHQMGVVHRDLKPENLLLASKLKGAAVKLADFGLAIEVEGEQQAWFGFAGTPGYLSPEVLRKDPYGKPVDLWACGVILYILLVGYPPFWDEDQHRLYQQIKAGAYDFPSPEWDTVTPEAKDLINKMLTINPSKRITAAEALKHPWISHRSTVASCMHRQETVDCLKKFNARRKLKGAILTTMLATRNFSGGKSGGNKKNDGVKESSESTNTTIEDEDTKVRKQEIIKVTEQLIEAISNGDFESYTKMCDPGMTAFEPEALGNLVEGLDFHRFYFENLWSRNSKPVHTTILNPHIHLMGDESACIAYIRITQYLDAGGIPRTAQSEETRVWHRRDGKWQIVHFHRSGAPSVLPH

In test [1] the target is GST-CaMKIINα (UniProt Q9JI15). Put plainly: pull-down; GST pull-down of CaMKII with GST-CaMKIINα in competition with His-GluN2B: both added simultaneously, or His-GluN2B added (one hour) after 20 min of CaMKII with GST-CaMKIINα; densitometry of three experiments.
Test [2] concerns the target GST-CaMKIINα (UniProt Q9JI15). The test can be described thus: pull-down; GST pull-down on glutathione-sepharose; CaMKII incubated with the GST fusion in 50 mM Pipes pH 7.0, 0.1% BSA, 150 mM NaCl, 0.1% Tween-20, with or without 1 mM CaCl2 and 1 uM calmodulin, 1 hour at 4°C; Western blot with anti-α-CaMKII and anti-GST.

No constants are given. Whether binding was seen depends on the method and setting. In cells and extracts the contact can be indirect. Some entries that bind do so weakly or less than the wild type.

On to “WT-α-CaMKII (from UniProt P11275 1-478) (enzyme)”, for which the binding entry with GST-CaMKIINα [1] and in the test with GST-CaMKIINα [2] was “binds” throughout.
